# Record: PubChem BioAssay AID1259424 (University of Nebraska Medical Center, 2018)
# Test: 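Find knockdowns that reproduce the expression shifts seen after KSR1 loss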 (primary screen)
# Cells: human HCT116 colon cancer cells
# Reagent: siRNA pool against human genes, 50 nM
# Measurement: 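Six signature mRNAs by branched-DNA multiplex assay, scaled to two housekeeping genes and non-targeting median, log2; matched to mean KSR1 knockdown profile by Pearson correlation and euclidean distance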
# Reading the numbers: mean correlation with KSR1 profile and KSR1 correlation: higher = expression change more like KSR1 knockdown; mean distance from KSR1 profile: higher = expression change less like KSR1 knockdown
# This is a random part of about 14,000 reagents. 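Higher correlation or smaller distance means closer resemblance to KSR1 loss; control wells, including KSR1 knockdowns, recur on many plates.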 The numbers tell different reagents against one gene apart. The record does not give: the time to read-out.
Gene,reagent no.,mean correlation with KSR1 profile,mean distance from KSR1 profile,"KSR1 correlation, replicate 1","KSR1 correlation, replicate 2","KSR1 correlation, replicate 3"
THUMPD1,1,-0.467,1.69,-0.288,-0.633,-0.339
ZNF334,1,-0.269,1.92,-0.442,-0.207,-0.266
RBM47,1,-0.355,2.48,-0.569,-0.0633,-0.417
KCNJ13,1,-0.132,2.31,-0.088,-0.217,-0.26
ANGEL1,1,-0.755,3.63,-0.668,-0.797,-0.551
ZNF770,1,-0.0336,4.24,0.0522,-0.0964,-0.0118
CCSER1,1,0.67,1.9,0.649,0.595,0.636
HSSUCCDH (retired record),1,-0.0883,1.94,-0.374,-0.202,0.0844
VKORC1,1,0.404,1.56,0.335,0.184,0.0415
POFUT2,1,-0.185,1.72,-0.31,-0.169,-0.124
FCN1,1,-0.275,2.01,-0.47,-0.422,-0.189
PCBP3,1,-0.328,2.61,-0.47,-0.199,-0.215
RIN1,1,0.872,0.912,0.744,0.818,0.715
RPL3,1,0.0415,1.88,-0.0679,-0.316,0.156
LINC00260,1,-0.309,3.2,-0.55,-0.1,-0.541
TOR4A,1,-0.625,3.09,-0.735,-0.586,-0.563
ARL2,1,-0.482,4.84,-0.355,-0.322,-0.616
B4GAT1,1,0.0855,1.54,0.26,-0.0327,0.0476
NEK2,1,0.048,3.61,0.243,0.202,-0.0765
TSPAN13,1,0.0929,1.83,0.192,-0.269,-0.208
CNRIP1,1,0.0897,1.52,0.223,-0.0297,0.0579
MLLT10,1,-0.286,1.71,-0.0891,0.00807,-0.271
CCNK,1,-0.572,5.7,-0.601,-0.538,-0.605
ATP8B2,1,-0.103,3.71,-0.374,-0.129,0.0617
MAP3K9,1,0.197,3.45,0.308,0.0692,0.104
SKIL,1,-0.251,3.18,-0.131,-0.119,-0.301

Part of the list above, reformatted.
ZNF334
- mean correlation with KSR1 profile: -0.269
- mean distance from KSR1 profile: 1.92
- KSR1 correlation, replicate 1: -0.442
- KSR1 correlation, replicate 2: -0.207
- KSR1 correlation, replicate 3: -0.266

RBM47
- mean correlation with KSR1 profile: -0.355
- mean distance from KSR1 profile: 2.48
- KSR1 correlation, replicate 1: -0.569
- KSR1 correlation, replicate 2: -0.0633
- KSR1 correlation, replicate 3: -0.417

KCNJ13
- mean correlation with KSR1 profile: -0.132
- mean distance from KSR1 profile: 2.31
- KSR1 correlation, replicate 1: -0.088
- KSR1 correlation, replicate 2: -0.217
- KSR1 correlation, replicate 3: -0.26

ANGEL1
- mean correlation with KSR1 profile: -0.755
- mean distance from KSR1 profile: 3.63
- KSR1 correlation, replicate 1: -0.668
- KSR1 correlation, replicate 2: -0.797
- KSR1 correlation, replicate 3: -0.551

ZNF770
- mean correlation with KSR1 profile: -0.0336
- mean distance from KSR1 profile: 4.24
- KSR1 correlation, replicate 1: 0.0522
- KSR1 correlation, replicate 2: -0.0964
- KSR1 correlation, replicate 3: -0.0118

CCSER1
- mean correlation with KSR1 profile: 0.67
- mean distance from KSR1 profile: 1.9
- KSR1 correlation, replicate 1: 0.649
- KSR1 correlation, replicate 2: 0.595
- KSR1 correlation, replicate 3: 0.636

HSSUCCDH (retired record)
- mean correlation with KSR1 profile: -0.0883
- mean distance from KSR1 profile: 1.94
- KSR1 correlation, replicate 1: -0.374
- KSR1 correlation, replicate 2: -0.202
- KSR1 correlation, replicate 3: 0.0844

Continued.
Gene,reagent no.,mean correlation with KSR1 profile,mean distance from KSR1 profile,"KSR1 correlation, replicate 1","KSR1 correlation, replicate 2","KSR1 correlation, replicate 3"
IL2RG,1,0.305,1.12,0.239,0.219,0.526
RTN4IP1,1,0.505,3.75,0.316,0.414,0.589
DPM1,1,-0.524,4.04,-0.432,-0.515,-0.578
CPLX2,1,-0.442,1.33,-0.164,-0.581,0.276
CPLX2,2,-0.45,2.55,-0.546,-0.314,-0.559
NCOA2,1,-0.529,2.28,-0.469,-0.316,-0.739
ABCB11,1,-0.386,2.58,-0.372,-0.385,-0.53
ZFAND1,1,0.322,3.46,0.345,0.407,0.253
SPATA20,1,-0.44,1.58,-0.669,-0.439,-0.287
DISP1,1,0.293,4.04,0.22,0.345,0.0726
NSUN3,1,-0.386,2.18,-0.437,-0.49,-0.192
FIBCD1,1,0.427,2.32,0.399,0.149,0.0857
PCM1,1,-0.0414,2.42,-0.0939,-0.0281,-0.0871
GRHL2,1,-0.173,3.95,-0.108,-0.162,-0.227
SHROOM4,1,0.293,2.14,0.179,0.354,0.231
AKAP14,1,-0.577,2.39,-0.661,-0.515,-0.709
NDUFB11,1,-0.564,1.42,-0.532,-0.505,-0.65
HHEX,1,0.625,1.83,0.584,0.453,0.464
TBC1D4,1,-0.132,1.88,0.185,-0.335,-0.258
LAPTM5,1,0.377,2.17,0.425,0.478,0.235
EZH1,1,-0.297,3.98,-0.494,-0.228,-0.29
BNC1,1,0.533,3.05,0.411,0.53,0.652
TAF9B,1,0.653,0.888,0.592,0.83,0.45
AGK,1,0.413,1.78,0.579,0.33,0.00974
HACE1,1,-0.607,2.6,-0.534,-0.31,-0.363
LYNX1,1,-0.358,3.23,-0.458,-0.437,-0.347
CSPG5,1,0.435,2.43,0.419,0.432,0.489
RNF19A,1,-0.315,2.07,-0.128,-0.281,-0.422
RBM3,1,-0.327,3.8,-0.316,-0.4,-0.228
C1RL,1,-0.591,3.4,-0.418,-0.39,-0.427
SKIC3,1,-0.197,2.39,-0.15,-0.0335,-0.369
KPNA2,1,-0.68,2.83,-0.735,-0.737,-0.731
NEU2,1,0.376,1.8,0.387,0.551,0.155
CLIC4,1,-0.387,3.2,-0.259,-0.488,-0.338
CMTR2,1,0.271,1.54,0.0395,0.251,0.449
BCL10,1,-0.406,2.34,-0.253,-0.547,-0.407
ATG101,1,-0.228,2.99,-0.225,-0.258,-0.115
